Data as given in PMC3532225.
No constants are given. Whether binding was seen depends on the method and setting. Binding seen in cells or lysates may run through a third protein. Some results given as binding are weak or reduced against the parent protein; the word gives no strength.

Sequences of proteins named here, by UniProt entry; tags and fusion partners are left off.
UniProt P42224: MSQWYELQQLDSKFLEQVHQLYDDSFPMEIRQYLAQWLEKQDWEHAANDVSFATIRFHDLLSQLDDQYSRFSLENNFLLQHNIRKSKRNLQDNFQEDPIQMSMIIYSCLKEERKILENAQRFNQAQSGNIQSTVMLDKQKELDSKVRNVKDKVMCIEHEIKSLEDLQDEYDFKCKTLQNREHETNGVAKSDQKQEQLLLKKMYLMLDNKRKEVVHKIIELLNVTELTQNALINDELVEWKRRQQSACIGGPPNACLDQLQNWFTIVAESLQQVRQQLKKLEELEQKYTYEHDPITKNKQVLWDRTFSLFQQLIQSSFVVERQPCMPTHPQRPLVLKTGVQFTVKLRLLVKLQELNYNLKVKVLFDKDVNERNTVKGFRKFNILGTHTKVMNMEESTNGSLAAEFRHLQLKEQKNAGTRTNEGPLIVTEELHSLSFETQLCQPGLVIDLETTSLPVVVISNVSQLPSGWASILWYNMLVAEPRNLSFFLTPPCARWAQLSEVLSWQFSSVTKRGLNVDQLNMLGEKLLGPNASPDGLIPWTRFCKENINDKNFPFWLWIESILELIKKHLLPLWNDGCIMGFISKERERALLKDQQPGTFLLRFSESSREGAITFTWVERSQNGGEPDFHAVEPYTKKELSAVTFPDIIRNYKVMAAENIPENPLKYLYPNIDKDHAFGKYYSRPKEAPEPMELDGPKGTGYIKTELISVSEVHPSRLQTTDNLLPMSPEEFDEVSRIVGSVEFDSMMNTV

Target: STAT1 WT-Flag (human) (UniProt P42224)
Assay: co-IP; Cos-7 cells co-transfected with STAT1-HA and STAT1-Flag with or without SUMO-1-His; unstimulated or IFN-γ (100 ng/ml, 45 min) and osmotic shock (0.3 M sorbitol, 15 min); lysis in 20 mM HEPES pH 8.0, 100 mM NaCl, 1% Triton X-100, 10% glycerol, 50 mM NaF, 1 mM EDTA, 10 mM NEM; anti-Flag M2 agarose 3 h at 4°C, elution with Flag peptide, blot with anti-HA

binding: binds
Substance: SUMO-1 conjugated STAT1-HA (from UniProt P42224 1-750; P63165 1-97)
